Values from PubChem BioAssay AID1259424 (University of Nebraska Medical Center, 2018)
Here is a random part of about 14,000 reagents tested. 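Higher correlation or smaller distance means closer resemblance to KSR1 loss; control wells, including KSR1 knockdowns, recur on many plates.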 Further read-outs or replicates are left out here. No sequences are given here. The record does not give: the time to read-out.

- Test: 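Rank knockdowns across the genome by resemblance to the KSR1 depletion profile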 (primary screen)
- System: human HCT116 colon cancer cells
- Knock-down reagent: siRNA pool against human genes, 50 nM
- Read-out: 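Log2 levels of six mRNAs (branched-DNA multiplex), adjusted by two reference genes and the non-targeting median, then scored against the average KSR1 knockdown pattern as Pearson r and euclidean distance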
- Scale: mean correlation with KSR1 profile and KSR1 correlation: higher = expression change more like KSR1 knockdown; mean distance from KSR1 profile: higher = expression change less like KSR1 knockdown

| target | mean correlation with KSR1 profile | mean distance from KSR1 profile | KSR1 correlation, replicate 1 |
| --- | --- | --- | --- |
| FXN (frataxin) | 0.362 | 1.34 | 0.11 |
| DMAP1 (DNA methyltransferase 1 associated protein 1) | -0.0535 | 5.88 | -0.017 |
| MLLT11 (MLLT11 transcription factor 7 cofactor) | 0.0923 | 1.85 | -0.119 |
| ACTR10 (actin related protein 10) | 0.858 | 1.31 | 0.949 |
| INKA2 (inka box actin regulator 2) | -0.5 | 1.41 | -0.712 |
| SART3 (spliceosome associated factor 3, U4/U6 recycling protein) | 0.439 | 1.07 | 0.553 |
| PRMT2 (protein arginine methyltransferase 2) | -0.545 | 2.25 | -0.432 |
| ARHGAP20 (Rho GTPase activating protein 20) | -0.643 | 3.96 | -0.228 |
| MOCS1 (molybdenum cofactor synthesis 1) | -0.00262 | 2.46 | -0.15 |
| CYBC1 (cytochrome b-245 chaperone 1) | 0.323 | 2.11 | 0.503 |
| RENBP (renin binding protein) | -0.75 | 2.45 | -0.771 |
| NLRP12 (NLR family pyrin domain containing 12) | 0.71 | 1.17 | 0.649 |
| MPZL2 (myelin protein zero like 2) | -0.251 | 1.84 | -0.184 |
| LCE3D (late cornified envelope 3D) | 0.0399 | 3.47 | 0.128 |
| SLC25A23 | -0.809 | 2.57 | -0.89 |
| RACK1 (receptor for activated C kinase 1) | -0.0448 | 1.64 | 0.00708 |
| TOMM20 (translocase of outer mitochondrial membrane 20) | -0.367 | 2.04 | -0.327 |
| CNKSR2 (connector enhancer of kinase suppressor of Ras 2) | -0.318 | 2.12 | -0.465 |
| POLDIP3 (DNA polymerase delta interacting protein 3) | 0.622 | 1.31 | 0.372 |
| GCLC (glutamate-cysteine ligase catalytic subunit) | -0.15 | 2.33 | -0.218 |
| CHRD (chordin) | -0.865 | 1.84 | -0.85 |
| MAN1B1 (mannosidase alpha class 1B member 1) | -0.526 | 1.91 | -0.596 |
| ADCK1 (aarF domain containing kinase 1) | 0.0706 | 2.32 | 0.15 |
| CYBRD1 (cytochrome b reductase 1) | 0.448 | 2.07 | 0.444 |
| BBS2 (Bardet-Biedl syndrome 2) | -0.54 | 2.88 | -0.54 |
| ATG12 (autophagy related 12) | 0.915 | 0.371 | 0.755 |
| RPS20 (ribosomal protein S20) | -0.129 | 1.68 | -0.258 |
| C5orf22 (chromosome 5 open reading frame 22) | -0.442 | 3.15 | -0.463 |
| UCHL3 (ubiquitin C-terminal hydrolase L3) | 0.17 | 0.947 | 0.369 |
| PHYKPL (5-phosphohydroxy-L-lysine phospho-lyase) | -0.0812 | 2.49 | -0.197 |
| FKRP (fukutin related protein) | -0.247 | 2.32 | -0.553 |
| STK40 (serine/threonine kinase 40) | -0.0642 | 2.99 | 0.304 |
| CPT2 (carnitine palmitoyltransferase 2) | 0.624 | 2.29 | 0.113 |
| ZXDC (ZXD family zinc finger C) | 0.737 | 1 | 0.797 |
| SEC23B (SEC23 homolog B, COPII component) | -0.0317 | 3.66 | -0.0334 |
| ABHD4 (abhydrolase domain containing 4, N-acyl phospholipase B) | -0.471 | 2.76 | -0.211 |
| ARRDC2 (arrestin domain containing 2) | 0.471 | 1.36 | 0.109 |
| CYP26B1 (cytochrome P450 family 26 subfamily B member 1) | -0.212 | 1.84 | -0.067 |
| NFX1 (nuclear transcription factor, X-box binding 1) | 0.419 | 2.93 | 0.373 |
| MAST2 (microtubule associated serine/threonine kinase 2) | -0.655 | 1.42 | 0.0835 |
| FRS3 (fibroblast growth factor receptor substrate 3) | 0.894 | 0.381 | 0.759 |
| INSM2 (INSM transcriptional repressor 2) | 0.159 | 2.07 | 0.0956 |
| IRX5 (iroquois homeobox 5) | -0.0628 | 2.33 | -0.171 |
| PYCR3 (pyrroline-5-carboxylate reductase 3) | 0.438 | 2.2 | 0.548 |
| DPH1 (diphthamide biosynthesis 1) | 0.00394 | 1.94 | 0.127 |
| TGIF2 (TGFB induced factor homeobox 2) | 0.117 | 2.22 | 0.0417 |
| TAS2R39 (taste 2 receptor member 39) | 0.677 | 1.16 | 0.781 |
| TTC1 (tetratricopeptide repeat domain 1) | -0.0323 | 4.52 | 0.0375 |
| TTLL1 (TTL family tubulin polyglutamylase complex subunit L1) | 0.076 | 2.04 | 0.18 |
| SP6 (Sp6 transcription factor) | 0.294 | 2.92 | 0.0778 |
| FCMR (Fc mu receptor) | 0.496 | 1.97 | 0.444 |
| ELF4 (E74 like ETS transcription factor 4) | 0.12 | 1.6 | 0.0505 |
| CD320 (CD320 molecule) | 0.00836 | 2.23 | 0.164 |
| PIAS2 (protein inhibitor of activated STAT 2) | 0.589 | 2.38 | 0.459 |
| IL13RA2 (interleukin 13 receptor subunit alpha 2) | 0.258 | 0.907 | 0.842 |
| ABCD2 (ATP binding cassette subfamily D member 2) | 0.324 | 1.74 | 0.454 |
| SRGAP2 (SLIT-ROBO Rho GTPase activating protein 2) | -0.105 | 1.66 | 0.0245 |
| IPMK (inositol polyphosphate multikinase) | -0.0235 | 3.68 | 0.343 |
| THTPA (thiamine triphosphatase) | -0.0161 | 3.02 | 0.0245 |
| WFS1 (wolframin ER transmembrane glycoprotein) | -0.51 | 3.01 | -0.633 |
| PCDHGA3 (protocadherin gamma subfamily A, 3) | -0.133 | 1.68 | -0.335 |
| GLOD4 (glyoxalase domain containing 4) | -0.549 | 1.05 | 0.00559 |
| LRP4 (LDL receptor related protein 4) | 0.46 | 1.86 | 0.432 |
